Measurements taken from the supplement of paper PMC12067093, “Discovery and optimisation of a covalent ligand for TRIM25 and its application to targeted protein ubiquitination” (Chemical Science, 2025).
The other results are listed elsewhere or left out.
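Also: competitive chemoproteomic profiling in live THP-1 cells with an iodoacetamide desthiobiotin (IA-DTB) probe, comparing probe-labelled peptide intensities in compound-treated cells against DMSO-treated controls.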

The chains behind the UniProt entries cited, without tags or fusion partners. Where a name states a change or a piece, a line headed by the entry shows the natural chain unless it says otherwise.
UniProt Q2M389: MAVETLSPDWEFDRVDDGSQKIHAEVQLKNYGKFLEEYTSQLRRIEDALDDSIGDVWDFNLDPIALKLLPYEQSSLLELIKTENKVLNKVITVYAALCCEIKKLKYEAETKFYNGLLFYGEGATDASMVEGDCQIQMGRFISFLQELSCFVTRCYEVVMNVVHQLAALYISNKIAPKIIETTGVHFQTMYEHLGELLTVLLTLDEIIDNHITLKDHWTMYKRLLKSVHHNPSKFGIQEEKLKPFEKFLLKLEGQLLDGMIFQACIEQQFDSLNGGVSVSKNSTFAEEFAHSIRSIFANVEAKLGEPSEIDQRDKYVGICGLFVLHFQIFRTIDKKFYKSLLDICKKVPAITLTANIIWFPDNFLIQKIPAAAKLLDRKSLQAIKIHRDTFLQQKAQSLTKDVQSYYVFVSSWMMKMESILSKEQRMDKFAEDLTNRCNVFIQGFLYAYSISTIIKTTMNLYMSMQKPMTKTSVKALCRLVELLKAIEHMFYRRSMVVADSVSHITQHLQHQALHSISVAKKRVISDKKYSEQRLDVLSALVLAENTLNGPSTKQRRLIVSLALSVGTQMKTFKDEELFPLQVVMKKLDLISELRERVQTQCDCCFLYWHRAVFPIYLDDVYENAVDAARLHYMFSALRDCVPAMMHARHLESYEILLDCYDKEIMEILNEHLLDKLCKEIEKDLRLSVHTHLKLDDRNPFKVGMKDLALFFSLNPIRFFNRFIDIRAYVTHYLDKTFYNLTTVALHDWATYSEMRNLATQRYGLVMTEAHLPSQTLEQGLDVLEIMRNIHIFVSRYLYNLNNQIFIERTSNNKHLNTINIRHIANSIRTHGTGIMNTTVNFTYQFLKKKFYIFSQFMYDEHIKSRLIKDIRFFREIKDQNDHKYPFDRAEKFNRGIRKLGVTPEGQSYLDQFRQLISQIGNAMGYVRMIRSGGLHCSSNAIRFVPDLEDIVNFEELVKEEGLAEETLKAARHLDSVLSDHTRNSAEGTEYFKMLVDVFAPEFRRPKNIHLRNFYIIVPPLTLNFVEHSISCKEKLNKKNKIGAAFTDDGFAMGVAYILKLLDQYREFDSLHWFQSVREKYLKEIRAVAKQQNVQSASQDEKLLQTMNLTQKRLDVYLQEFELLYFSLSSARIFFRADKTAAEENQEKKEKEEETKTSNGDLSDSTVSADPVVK
UniProt Q8NEZ3: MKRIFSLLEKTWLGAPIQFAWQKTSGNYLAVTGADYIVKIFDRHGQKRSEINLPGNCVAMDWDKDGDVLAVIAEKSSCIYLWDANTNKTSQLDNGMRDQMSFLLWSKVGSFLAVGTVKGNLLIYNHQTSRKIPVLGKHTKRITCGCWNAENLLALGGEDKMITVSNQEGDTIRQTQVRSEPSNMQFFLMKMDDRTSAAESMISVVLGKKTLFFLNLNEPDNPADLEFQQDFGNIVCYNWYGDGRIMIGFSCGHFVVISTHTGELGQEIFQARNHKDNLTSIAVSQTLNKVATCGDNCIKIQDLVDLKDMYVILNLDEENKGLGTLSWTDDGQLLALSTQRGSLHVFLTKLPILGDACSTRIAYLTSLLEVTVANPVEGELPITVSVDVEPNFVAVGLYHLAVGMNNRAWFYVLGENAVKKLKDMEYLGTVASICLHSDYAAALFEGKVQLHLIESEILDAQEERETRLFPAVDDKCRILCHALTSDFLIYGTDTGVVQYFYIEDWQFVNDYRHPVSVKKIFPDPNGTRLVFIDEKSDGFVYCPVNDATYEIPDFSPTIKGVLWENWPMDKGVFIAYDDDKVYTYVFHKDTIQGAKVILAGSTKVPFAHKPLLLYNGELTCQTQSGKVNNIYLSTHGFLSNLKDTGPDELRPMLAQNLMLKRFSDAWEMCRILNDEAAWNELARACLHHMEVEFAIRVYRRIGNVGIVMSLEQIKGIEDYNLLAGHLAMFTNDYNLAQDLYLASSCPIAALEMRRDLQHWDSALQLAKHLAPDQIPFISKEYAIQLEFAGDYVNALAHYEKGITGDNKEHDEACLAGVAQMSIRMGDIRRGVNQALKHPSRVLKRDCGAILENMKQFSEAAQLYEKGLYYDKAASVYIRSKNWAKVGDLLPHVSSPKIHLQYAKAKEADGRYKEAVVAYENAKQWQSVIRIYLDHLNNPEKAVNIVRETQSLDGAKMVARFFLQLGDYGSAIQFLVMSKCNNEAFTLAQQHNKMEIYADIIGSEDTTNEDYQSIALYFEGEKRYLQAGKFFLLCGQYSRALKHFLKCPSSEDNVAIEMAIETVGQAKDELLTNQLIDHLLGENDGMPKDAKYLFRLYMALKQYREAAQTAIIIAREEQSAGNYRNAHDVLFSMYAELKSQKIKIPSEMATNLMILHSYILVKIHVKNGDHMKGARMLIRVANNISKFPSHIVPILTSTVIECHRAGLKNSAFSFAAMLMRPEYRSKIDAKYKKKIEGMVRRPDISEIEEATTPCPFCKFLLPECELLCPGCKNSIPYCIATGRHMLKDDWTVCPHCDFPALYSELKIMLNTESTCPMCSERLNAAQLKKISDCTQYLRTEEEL
UniProt Q9UNX4: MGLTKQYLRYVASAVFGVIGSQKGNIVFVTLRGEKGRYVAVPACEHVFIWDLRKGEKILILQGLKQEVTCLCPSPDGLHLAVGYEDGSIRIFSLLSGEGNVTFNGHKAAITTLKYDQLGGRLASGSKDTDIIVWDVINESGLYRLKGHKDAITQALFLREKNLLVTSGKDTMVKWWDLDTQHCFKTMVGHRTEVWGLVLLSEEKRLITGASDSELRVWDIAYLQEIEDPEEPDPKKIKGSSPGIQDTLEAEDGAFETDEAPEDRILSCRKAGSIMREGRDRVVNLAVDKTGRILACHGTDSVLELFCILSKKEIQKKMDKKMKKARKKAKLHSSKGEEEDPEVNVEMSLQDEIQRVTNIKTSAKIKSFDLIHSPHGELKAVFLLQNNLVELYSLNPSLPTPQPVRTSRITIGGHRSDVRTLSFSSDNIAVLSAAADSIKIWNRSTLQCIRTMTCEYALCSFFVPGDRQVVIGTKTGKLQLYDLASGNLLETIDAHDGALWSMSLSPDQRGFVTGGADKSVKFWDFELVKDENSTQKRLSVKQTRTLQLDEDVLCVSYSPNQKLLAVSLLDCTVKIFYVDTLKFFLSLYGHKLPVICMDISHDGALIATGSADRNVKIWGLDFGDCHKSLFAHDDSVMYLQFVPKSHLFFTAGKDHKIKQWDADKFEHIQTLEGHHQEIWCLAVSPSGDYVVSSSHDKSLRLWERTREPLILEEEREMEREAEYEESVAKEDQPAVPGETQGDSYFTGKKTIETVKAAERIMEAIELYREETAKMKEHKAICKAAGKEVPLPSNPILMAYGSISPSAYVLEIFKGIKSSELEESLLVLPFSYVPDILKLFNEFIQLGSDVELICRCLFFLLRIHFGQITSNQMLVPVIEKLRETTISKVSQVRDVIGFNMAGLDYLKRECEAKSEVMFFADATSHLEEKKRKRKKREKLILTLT
UniProt Q8NI36: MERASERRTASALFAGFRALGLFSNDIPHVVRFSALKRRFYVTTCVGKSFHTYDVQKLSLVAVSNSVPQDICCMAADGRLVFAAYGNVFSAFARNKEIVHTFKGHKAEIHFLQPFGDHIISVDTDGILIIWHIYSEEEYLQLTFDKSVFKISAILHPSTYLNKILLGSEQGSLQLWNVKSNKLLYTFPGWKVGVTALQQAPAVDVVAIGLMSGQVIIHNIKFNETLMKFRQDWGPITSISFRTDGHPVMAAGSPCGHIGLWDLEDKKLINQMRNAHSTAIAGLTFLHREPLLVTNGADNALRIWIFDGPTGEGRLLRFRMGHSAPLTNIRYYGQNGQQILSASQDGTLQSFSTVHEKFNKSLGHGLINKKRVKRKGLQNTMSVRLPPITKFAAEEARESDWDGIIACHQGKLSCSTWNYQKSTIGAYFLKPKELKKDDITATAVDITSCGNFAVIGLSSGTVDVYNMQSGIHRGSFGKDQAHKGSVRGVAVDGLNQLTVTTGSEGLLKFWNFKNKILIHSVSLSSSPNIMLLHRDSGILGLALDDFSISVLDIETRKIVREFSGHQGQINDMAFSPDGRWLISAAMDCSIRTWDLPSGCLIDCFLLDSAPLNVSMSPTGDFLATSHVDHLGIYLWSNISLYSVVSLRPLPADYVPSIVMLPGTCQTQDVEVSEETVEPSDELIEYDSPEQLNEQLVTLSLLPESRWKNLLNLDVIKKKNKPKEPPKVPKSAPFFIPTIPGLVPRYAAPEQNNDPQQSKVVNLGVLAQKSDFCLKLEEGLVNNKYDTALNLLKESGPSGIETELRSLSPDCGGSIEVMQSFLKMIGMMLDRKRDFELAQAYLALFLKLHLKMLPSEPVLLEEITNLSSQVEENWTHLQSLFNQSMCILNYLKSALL
UniProt Q9NQW7: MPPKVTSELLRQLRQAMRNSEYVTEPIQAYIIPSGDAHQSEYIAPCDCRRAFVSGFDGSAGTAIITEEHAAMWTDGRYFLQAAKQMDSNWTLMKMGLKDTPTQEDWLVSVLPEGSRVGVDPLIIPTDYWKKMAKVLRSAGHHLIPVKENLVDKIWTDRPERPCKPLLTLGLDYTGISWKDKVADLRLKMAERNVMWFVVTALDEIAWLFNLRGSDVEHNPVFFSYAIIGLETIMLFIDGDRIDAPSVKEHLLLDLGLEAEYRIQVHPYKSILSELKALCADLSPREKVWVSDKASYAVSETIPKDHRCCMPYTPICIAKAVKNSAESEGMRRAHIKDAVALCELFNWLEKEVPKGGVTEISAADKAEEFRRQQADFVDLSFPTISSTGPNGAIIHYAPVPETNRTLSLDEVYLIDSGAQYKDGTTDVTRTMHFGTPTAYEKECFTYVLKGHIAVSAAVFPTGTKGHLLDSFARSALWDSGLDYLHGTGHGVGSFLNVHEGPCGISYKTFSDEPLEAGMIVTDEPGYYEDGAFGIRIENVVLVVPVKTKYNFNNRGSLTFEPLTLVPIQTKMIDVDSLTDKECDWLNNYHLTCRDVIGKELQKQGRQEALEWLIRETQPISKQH
UniProt Q8IWA0: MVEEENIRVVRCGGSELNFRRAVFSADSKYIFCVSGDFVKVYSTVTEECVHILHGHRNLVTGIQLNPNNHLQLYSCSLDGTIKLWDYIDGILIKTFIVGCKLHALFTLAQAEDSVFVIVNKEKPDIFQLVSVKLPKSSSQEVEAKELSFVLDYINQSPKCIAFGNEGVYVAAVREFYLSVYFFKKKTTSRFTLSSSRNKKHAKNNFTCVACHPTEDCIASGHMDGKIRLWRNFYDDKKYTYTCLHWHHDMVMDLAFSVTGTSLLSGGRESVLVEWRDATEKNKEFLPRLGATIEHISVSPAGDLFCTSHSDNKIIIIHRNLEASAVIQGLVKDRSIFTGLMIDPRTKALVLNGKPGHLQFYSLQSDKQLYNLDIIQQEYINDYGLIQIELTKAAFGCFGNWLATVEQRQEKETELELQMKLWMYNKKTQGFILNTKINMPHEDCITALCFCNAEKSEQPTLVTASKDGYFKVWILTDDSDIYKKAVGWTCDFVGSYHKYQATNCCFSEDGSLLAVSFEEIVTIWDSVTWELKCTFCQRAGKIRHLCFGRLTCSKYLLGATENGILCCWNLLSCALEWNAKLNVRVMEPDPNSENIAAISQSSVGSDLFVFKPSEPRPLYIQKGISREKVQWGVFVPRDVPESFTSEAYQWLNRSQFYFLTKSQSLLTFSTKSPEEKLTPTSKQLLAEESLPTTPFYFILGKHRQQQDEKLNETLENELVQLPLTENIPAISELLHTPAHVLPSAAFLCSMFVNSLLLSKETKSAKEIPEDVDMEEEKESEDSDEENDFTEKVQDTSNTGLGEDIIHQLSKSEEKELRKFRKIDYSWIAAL
UniProt Q9H967: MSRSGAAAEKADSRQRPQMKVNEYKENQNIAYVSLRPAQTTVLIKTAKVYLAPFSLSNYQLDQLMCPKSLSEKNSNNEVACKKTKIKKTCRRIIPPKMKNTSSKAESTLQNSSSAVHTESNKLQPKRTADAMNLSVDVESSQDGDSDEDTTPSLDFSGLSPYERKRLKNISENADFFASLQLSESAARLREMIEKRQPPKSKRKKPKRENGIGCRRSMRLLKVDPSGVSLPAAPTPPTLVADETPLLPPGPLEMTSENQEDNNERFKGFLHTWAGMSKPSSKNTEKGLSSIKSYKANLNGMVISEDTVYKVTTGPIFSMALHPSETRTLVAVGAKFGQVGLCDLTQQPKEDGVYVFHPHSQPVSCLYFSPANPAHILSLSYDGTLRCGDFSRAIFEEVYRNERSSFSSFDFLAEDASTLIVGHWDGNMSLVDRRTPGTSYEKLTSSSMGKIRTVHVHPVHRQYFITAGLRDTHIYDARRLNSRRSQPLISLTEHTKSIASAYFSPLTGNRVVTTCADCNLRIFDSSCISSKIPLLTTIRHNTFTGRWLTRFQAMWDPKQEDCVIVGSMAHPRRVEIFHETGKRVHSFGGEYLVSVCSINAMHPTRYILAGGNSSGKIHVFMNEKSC

What follows are targets tested with CC1Cc2ccccc2N1C(=O)C1CCCN(C1)C(=O)CCl (mixture of isomers) [TRIM25 ligand 11 (diastereomer mixture)] (assay: probe-labelled cysteine peptide fold change vs DMSO (competition) (log2 fold change); higher = less target engagement (more negative = stronger competition)). Settings: 10 µM; THP-1; incubation time: 4 h.
With “WASHC4_Q2M389_659_HLESYEILLDCYDK (UniProt Q2M389)” the “probe-labelled cysteine peptide fold change” value was 0.138.
For “WAPL_Q7Z5K2_964_TGEQDGLIGTALNCVLQVPK (UniProt Q7Z5K2)”, the “probe-labelled cysteine peptide fold change” value was 0.28.
For “WDR19_Q8NEZ3_813_EHDEACLAGVAQMSIR (UniProt Q8NEZ3)”, the “probe-labelled cysteine peptide fold change” value was 0.423.
With “XAF1_Q6GPH4_62_LEHQQVGCTMCQQSMQK (UniProt Q6GPH4)” the “probe-labelled cysteine peptide fold change” value was -0.157.
With “WDR77_Q9BQA1_53_CWAGSLWLFK (UniProt Q9BQA1)” the “probe-labelled cysteine peptide fold change” value was 0.0175.
In the case of “WIZ_O95785_1048_CEFCGEFFENR (UniProt O95785)”, the “probe-labelled cysteine peptide fold change” value is reported as 0.0722.
“WDR61_Q9GZS3_266_TCVHTFFDHQDQVWGVK (UniProt Q9GZS3)” was tested, and the “probe-labelled cysteine peptide fold change” value was -0.00305.
For “WDR3_Q9UNX4_296_ILACHGTDSVLELFCILSK (UniProt Q9UNX4)”, the “probe-labelled cysteine peptide fold change” value was 0.00194.
“WDR36_Q8NI36_311_TDGHPVMAAGSPCGHIGLWDLEDK (UniProt Q8NI36)” was tested, and the “probe-labelled cysteine peptide fold change” value was 0.0999.
“XPNPEP1_Q9NQW7_279_ALCADLSPR (UniProt Q9NQW7)” was tested, and the “probe-labelled cysteine peptide fold change” value was -0.0326.
“WDR75_Q8IWA0_12_CGGSELNFR (UniProt Q8IWA0)” was tested, and the “probe-labelled cysteine peptide fold change” value was 0.148.
“WDR3_Q9UNX4_183_WWDLDTQHCFK (UniProt Q9UNX4)” was tested, and the “probe-labelled cysteine peptide fold change” value was 0.0931.
“WDR45B_Q5MNZ6_63_CNYLALVGGGK (UniProt Q5MNZ6)” was tested, and the “probe-labelled cysteine peptide fold change” value was 0.0226.
In the case of “WDR53_Q7Z5U6_99_DSLDHFHVNEEEINCLSLNQTENLLASADDSGAIK (UniProt Q7Z5U6)”, the “probe-labelled cysteine peptide fold change” value is reported as 0.0638.
For “WDR76_Q9H967_81_NSNNEVACKK (UniProt Q9H967)”, the “probe-labelled cysteine peptide fold change” value was -0.37.
In the case of “WDR76_Q9H967_562_FQAMWDPKQEDCVIVGSMAHPR (UniProt Q9H967)”, the “probe-labelled cysteine peptide fold change” value is reported as -0.206.
